Values from PubChem BioAssay AID1259299 (Sanger Institute, 2017).
The deposit covers 794 reagents; this is a random part of them. 9 of all reagents (1.1%) count as active. 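Calls rest on knock-down alone; synergy scores play no part in calls, and no gene passed the synergy cut.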 No viability above 1 is reported: the scale is capped. Further read-outs or replicates are left out here. Reagent sequences are not shown. The record does not give: the amount of reagent, the time to read-out.

Aim: 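Knock-down screen of kinome and colorectal mutation genes alongside three targeted drugs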 (primary screen)
Cells: human CAR1 colorectal cancer cells
Knock-down reagent: siRNA pool against human genes
Conditions: anchor drug BYL719 1 µM, cetuximab 5 µg/ml or trametinib 10 nM, or DMSO vehicle alone; exposure length not given
Measured: 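Cell viability as fraction of non-targeting siRNA wells, mean of replicates, with robust z-score and a synergy score for each of three drugs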
Scale: viability robust z-score, knock-down alone and viability, knock-down alone (DMSO): higher = more viable cells; synergy score with BYL719: higher = stronger synergy with drug (synthetic lethal)
Rule for the call: 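Essential when viability robust z-score with knock-down alone (DMSO) is below -3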
Meaning of the calls: active = essential (knock-down alone); inactive = no change

| gene knocked down | viability robust z-score, knock-down alone | viability, knock-down alone (DMSO) (fraction of control) | synergy score with BYL719 | outcome |
| --- | --- | --- | --- | --- |
| AXIN2 (axin 2) | 0.296 | 0.954 | -0.0235 | inactive |
| SMG1 | -0.548 | 0.877 | -0.172 | inactive |
| EPHA7 (EPH receptor A7) | -0.185 | 0.91 | -0.0951 | inactive |
| CAMK4 (calcium/calmodulin dependent protein kinase IV) | 0.789 | 1 | -0.153 | inactive |
| CSNK2A2 (casein kinase 2 alpha 2) | -3.94 | 0.564 | -0.169 | active |
| CDK2 (cyclin dependent kinase 2) | 0.534 | 0.976 | -0.203 | inactive |
| CDKN1C (cyclin dependent kinase inhibitor 1C) | 0.637 | 0.986 | -0.095 | inactive |
| PRKAR2B | -1.2 | 0.817 | -0.159 | inactive |
| PIP4K2B (phosphatidylinositol-5-phosphate 4-kinase type 2 beta) | 0.215 | 0.947 | 0.0155 | inactive |
| DGKQ (diacylglycerol kinase theta) | 0.789 | 1 | -0.128 | inactive |
| COMMD3 (COMM domain containing 3) | 0.413 | 0.965 | -0.0829 | inactive |
| CDKL3 (cyclin dependent kinase like 3) | 0.789 | 1 | -0.206 | inactive |
| CDK5R1 (cyclin dependent kinase 5 regulatory subunit 1) | -0.859 | 0.848 | -0.181 | inactive |
| TEK (TEK receptor tyrosine kinase) | 0.789 | 1 | -0.177 | inactive |
| BMPR1A (bone morphogenetic protein receptor type 1A) | 0.14 | 0.94 | -0.211 | inactive |
| PRKCQ (protein kinase C theta) | 0.505 | 0.974 | -0.0488 | inactive |
| TBX3 (T-box transcription factor 3) | 0.789 | 1 | -0.077 | inactive |
| PAPSS2 (3'-phosphoadenosine 5'-phosphosulfate synthase 2) | 0.203 | 0.946 | -0.0937 | inactive |
| TSSK3 (testis specific serine kinase 3) | 0.0677 | 0.933 | -0.166 | inactive |
| EPHB1 (EPH receptor B1) | 0.579 | 0.981 | -0.0638 | inactive |
| CKB (creatine kinase B) | 0.149 | 0.941 | -0.197 | inactive |
| IRAK2 (interleukin 1 receptor associated kinase 2) | 0.445 | 0.968 | -0.0701 | inactive |
| MAP3K2 (mitogen-activated protein kinase kinase kinase 2) | 0.789 | 1 | -0.182 | inactive |
| SMAD4 (SMAD family member 4) | -0.357 | 0.894 | -0.105 | inactive |
| BMAL1 (basic helix-loop-helix ARNT like 1) | -0.973 | 0.837 | -0.0594 | inactive |
| MAPK7 (mitogen-activated protein kinase 7) | 0.789 | 1 | -0.206 | inactive |
| CKS2 (CDC28 protein kinase regulatory subunit 2) | 0.249 | 0.95 | -0.239 | inactive |
| BRD3 (bromodomain containing 3) | 0.789 | 1 | -0.202 | inactive |
| GOLGA5 (golgin A5) | 0.789 | 1 | -0.162 | inactive |
| TCF7L2 (transcription factor 7 like 2) | 0.789 | 1 | -0.109 | inactive |
| TRIB3 (tribbles pseudokinase 3) | 0.459 | 0.97 | -0.156 | inactive |
| PIK3R5 (phosphoinositide-3-kinase regulatory subunit 5) | 0.0377 | 0.931 | 0.0471 | inactive |
| FES (FES proto-oncogene, tyrosine kinase) | -0.00105 | 0.927 | 0.0167 | inactive |
| LYN (LYN proto-oncogene, Src family tyrosine kinase) | 0.789 | 1 | -0.206 | inactive |

2 of these entries in another layout.
gene knocked down | viability robust z-score, knock-down alone | viability, knock-down alone (DMSO) (fraction of control) | synergy score with BYL719 | outcome
CDK2 (cyclin dependent kinase 2) | 0.534 | 0.976 | -0.203 | inactive
CDKN1C (cyclin dependent kinase inhibitor 1C) | 0.637 | 0.986 | -0.095 | inactive
